According to article PMC9426557:
These are yes or no findings as the source states them, for the method shown. In cells and extracts the contact can be indirect. Binding calls can cover weak binding; strength is not graded here. For part of these data: Tags and fused reporters may be left off the sequences shown.

Amino acid sequences for entries named in this document (tags omitted). A change or cut given only in a name is not applied to a line headed by its entry.
UniProt Q1K8X0: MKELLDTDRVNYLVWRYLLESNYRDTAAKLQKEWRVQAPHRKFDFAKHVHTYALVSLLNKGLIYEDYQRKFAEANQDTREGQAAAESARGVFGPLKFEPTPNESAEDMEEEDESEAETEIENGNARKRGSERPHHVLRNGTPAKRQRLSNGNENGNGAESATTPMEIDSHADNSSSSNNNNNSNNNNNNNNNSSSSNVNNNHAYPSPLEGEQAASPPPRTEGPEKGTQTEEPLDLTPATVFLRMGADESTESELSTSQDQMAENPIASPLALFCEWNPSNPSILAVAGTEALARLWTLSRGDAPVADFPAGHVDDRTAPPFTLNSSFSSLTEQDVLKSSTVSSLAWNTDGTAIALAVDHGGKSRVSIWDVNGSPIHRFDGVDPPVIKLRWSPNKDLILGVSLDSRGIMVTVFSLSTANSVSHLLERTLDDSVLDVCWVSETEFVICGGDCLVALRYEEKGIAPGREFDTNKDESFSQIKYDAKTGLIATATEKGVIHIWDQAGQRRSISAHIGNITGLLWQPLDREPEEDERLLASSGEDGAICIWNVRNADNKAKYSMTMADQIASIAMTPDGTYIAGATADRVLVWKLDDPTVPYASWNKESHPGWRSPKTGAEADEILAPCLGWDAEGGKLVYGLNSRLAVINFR

How the values were obtained:
[1] = molecular target: SIF-2 (endogenous) (Neurospora crassa (endogenous in N. crassa mycelium)) (UniProt Q1K8X0); test: co-IP; N. crassa WT-strain cell extracts with ectopic Myc-tagged protein, precipitated with anti-HDA-2 or anti-SIF-2 antibody, protein G-Sepharose; eluates blotted with anti-Myc and anti-HDA-2 or anti-SIF-2
[2] = molecular target: T1, HDA-2 (histone deacetylase 2, endogenous) (Neurospora crassa (endogenous in N. crassa mycelium)) (UniProt Q7SEL7); test: as above
T1 sequence: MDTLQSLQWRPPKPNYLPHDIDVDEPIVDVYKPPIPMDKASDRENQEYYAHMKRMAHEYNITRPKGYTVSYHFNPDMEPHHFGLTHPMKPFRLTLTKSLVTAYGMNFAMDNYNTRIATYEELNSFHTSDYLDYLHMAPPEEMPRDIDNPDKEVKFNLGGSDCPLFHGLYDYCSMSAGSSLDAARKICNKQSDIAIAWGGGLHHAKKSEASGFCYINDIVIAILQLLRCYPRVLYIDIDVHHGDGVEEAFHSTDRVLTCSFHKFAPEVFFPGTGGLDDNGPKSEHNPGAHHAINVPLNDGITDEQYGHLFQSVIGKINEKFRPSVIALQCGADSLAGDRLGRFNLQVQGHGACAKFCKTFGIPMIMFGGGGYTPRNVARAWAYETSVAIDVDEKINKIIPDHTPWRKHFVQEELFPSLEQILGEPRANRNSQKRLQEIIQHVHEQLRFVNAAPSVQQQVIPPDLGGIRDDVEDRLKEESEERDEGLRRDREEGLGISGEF

[3] = molecular target: T2, Myc-HDA-2 (histone deacetylase 2, 5Myc-6×His-HDA-2) (Neurospora crassa) (UniProt Q7SEL7); test: co-IP; N. crassa cell extracts (4 mg/mL) incubated with monoclonal anti-c-Myc antibody 4 h at 4°C, protein G-Sepharose; eluates blotted with anti-SIF-2 or anti-HDA-2 and anti-Myc
T2 sequence: T1 sequence

binding [1]	binding [2]	binding [3]	Substance
binds	binds	–	Myc-YIL112w (from UniProt Q7RYS2)
–	–	binds	SIF-2 (endogenous) (from UniProt Q1K8X0)
